Reference: PubChem BioAssay AID686943 (Drosophila RNAi Screening Center, 2013)
Assay: 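Fly genes whose loss alters ERK activation after insulin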 (primary screen). System: Drosophila S2R+ haemocyte-like cells expressing YFP-tagged ERK (Rolled). Knock-down reagent: long dsRNA against Drosophila genes. Treatment: insulin stimulation versus unstimulated cells; dose and duration not given. Measured: 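Per-plate z-scores of phospho-ERK immunostaining normalised to YFP-tagged ERK, measured with and without insulin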. Direction: replicate 1, z-score of dpERK with insulin and replicate 2, z-score of dpERK with insulin: higher = more active ERK per ERK-YFP after insulin.
In all, the deposit lists about 23,000 reagents; shown is an unselected part of those that have a named target and a result. 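Extra replicates exist only for a retested subset of genes; insulin dose and duration not given; both raised and lowered dpERK matter.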 Not all columns of the deposit are shown. Reagent sequences are not shown. Not given: the amount of reagent, the time to read-out.

CG16898 → replicate 1, z-score of dpERK with insulin = -1.26; replicate 2, z-score of dpERK with insulin = 0.01
Tsp97E → replicate 1, z-score of dpERK with insulin = -0.05; replicate 2, z-score of dpERK with insulin = -0.05
Ir25a → replicate 1, z-score of dpERK with insulin = 0.16; replicate 2, z-score of dpERK with insulin = 0.09
Reg-2 → replicate 1, z-score of dpERK with insulin = -0.7; replicate 2, z-score of dpERK with insulin = 0.78
neo → replicate 1, z-score of dpERK with insulin = -0.06; replicate 2, z-score of dpERK with insulin = -0.38
Sbf → replicate 1, z-score of dpERK with insulin = -0.74; replicate 2, z-score of dpERK with insulin = -0.07
CG17744 → replicate 1, z-score of dpERK with insulin = 1.06; replicate 2, z-score of dpERK with insulin = 0.12
CG43253 (retired record) → replicate 1, z-score of dpERK with insulin = 0.9; replicate 2, z-score of dpERK with insulin = 0.28
CG32628 (retired record) → replicate 1, z-score of dpERK with insulin = 1.05; replicate 2, z-score of dpERK with insulin = 0.3
CG7768 → replicate 1, z-score of dpERK with insulin = -0.53; replicate 2, z-score of dpERK with insulin = 0.23
Sin1 → replicate 1, z-score of dpERK with insulin = 0.75; replicate 2, z-score of dpERK with insulin = 0.31
Taf13 → replicate 1, z-score of dpERK with insulin = 0.36; replicate 2, z-score of dpERK with insulin = -0.68

Records above whose gene name begins with C or c:
CG16898 → replicate 1, z-score of dpERK with insulin = -1.26; replicate 2, z-score of dpERK with insulin = 0.01
CG17744 → replicate 1, z-score of dpERK with insulin = 1.06; replicate 2, z-score of dpERK with insulin = 0.12
CG43253 (retired record) → replicate 1, z-score of dpERK with insulin = 0.9; replicate 2, z-score of dpERK with insulin = 0.28
CG32628 (retired record) → replicate 1, z-score of dpERK with insulin = 1.05; replicate 2, z-score of dpERK with insulin = 0.3
CG7768 → replicate 1, z-score of dpERK with insulin = -0.53; replicate 2, z-score of dpERK with insulin = 0.23
